According to patent US20070298499, “Methods and compositions for regulating gene expression in plant cells” (published 2007):

How the values were obtained:
[1] = biological target: T1, RF2a (expressed in BY-2 protoplasts) (UniProt Q69IL4); test: activity in cells; details: protein in cells
T1 sequence: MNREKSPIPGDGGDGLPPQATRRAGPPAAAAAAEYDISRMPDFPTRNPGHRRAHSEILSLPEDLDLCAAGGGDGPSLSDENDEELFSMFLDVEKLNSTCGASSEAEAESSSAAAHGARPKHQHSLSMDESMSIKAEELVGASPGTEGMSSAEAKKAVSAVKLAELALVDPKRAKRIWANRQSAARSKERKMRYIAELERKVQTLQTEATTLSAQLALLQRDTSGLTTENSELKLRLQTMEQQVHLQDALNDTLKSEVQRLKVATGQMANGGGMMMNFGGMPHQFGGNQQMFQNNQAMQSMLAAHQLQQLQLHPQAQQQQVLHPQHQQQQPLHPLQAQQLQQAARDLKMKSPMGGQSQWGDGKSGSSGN

RF2a = biological target: T2, RF2a (UniProt Q69IL4); test: SPR; details: higher affinity than RF2b, purified recombinant protein, protein details: N-terminal His6 (pET28a), label: biotin (SPR)
T2 sequence: T1 sequence

[2] = biological target: T3, RF2a-3Δ (proline-rich, acidic and glutamine-rich domains deleted) (UniProt Q69IL4); test: EMSA; details: 100 ng protein, 5% acrylamide gel; purified recombinant protein; protein details: N-terminal His6 (pET28a); label: biotin (SPR), 32P (EMSA); variant of Box II
T3 sequence: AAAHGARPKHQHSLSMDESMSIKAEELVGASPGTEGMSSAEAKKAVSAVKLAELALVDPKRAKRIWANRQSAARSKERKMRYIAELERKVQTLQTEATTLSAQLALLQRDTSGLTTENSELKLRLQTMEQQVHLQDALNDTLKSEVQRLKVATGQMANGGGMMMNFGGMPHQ

[3] = GUS reporter in BY-2 protoplasts, range given for m1 and m2 together

ACGAATCAATAAAGAAGGACCAGAAGATATAAAGCTGGAACATCTTCACATGCTACCACATGGCTAGCATCTTTACTTTAGCATCTCTATTATTGTAAGAGTGTATAATGACCAGTGTGGCGCTGGACTCCAGTATATAAGGAGCACCAGAGTAGTGTAATAGATCATCGATCAAGCAAGCGAGAGCTCAAACTTCTAAGAGAGCAAGA (double strand) [E fragment with Box IIm1]
activity on this sequence [1, 3]: active

ACGAATCAATAAAGAAGGACCAGAAGATATAAAGCTGGAACATCTTCACATGCTACCACATGGCTAGCATCTTTACTTTAGCATCTCTATTATTGTAAGAGTGTATAATGAGGAGTGTGCCCCTTCACTCCAGTATATAAGGAGCACCAGAGTAGTGTAATAGATCATCGATCAAGCAAGCGAGAGCTCAAACTTCTAAGAGAGCAAGA (double strand) [E fragment with Box IIm2]
activity on this sequence [1, 3]: active

CCAGTGTGCCCCTGG (double strand) [Box II]
binding result (RF2a; fast on, slow off, BIAcore 2000, 1:1 with mass transfer): binds | activity on this sequence ([1]; Box II fused to CaMV 35S -48 to +8 minimal promoter, GUS, activates, only the site is given): active

CCAGTGTGGCGCTGG (double strand) [Box IIm1]
binding result [2]: binds | binding result (RF2a; 32P (EMSA), variant of Box II): binds

GGAGTGTGCCCCTTC (double strand) [Box IIm2]
binding result (RF2a; variant of Box II): binds

Construct, isoform or probe ends are uncertain for at least one entry. Protein sequences can lack the tags named with them.
